This is one part of the list.
Experiments:
Test in all cases: log2 fold change, soluble protein after heating vs DMSO (PISA); higher = thermal stabilisation; K562 lysate, 10 uM; active = over 0.2 and 3.5 SD of the protein, either way, in both replicates (recomputed)
vemurafenib = compound: CCCS(=O)(=O)Nc1ccc(F)c(C(=O)c2c[nH]c3ncc(-c4ccc(Cl)cc4)cc23)c1F [vemurafenib]
How it was run: (§1)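 The values are log-two fold changes in thermal stability compared with solvent controls and come from duplicates. They were obtained by TMTpro 16plex LC-MS/MS, with channel sums equalised, on the supernatant after 21,000xg for 90 min. That supernatant came from crude K562 extract at 1 mg/mL protein treated with 10 μM compound for 30 min, heated for 3 min across 48°C-58°C, pooled and brought to 0.5% NP-40 at 4°C.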

The chains behind the UniProt entries cited, without tags or fusion partners. Where a name states a change or a piece, a line headed by the entry shows the natural chain unless it says otherwise.
UniProt Q7L099: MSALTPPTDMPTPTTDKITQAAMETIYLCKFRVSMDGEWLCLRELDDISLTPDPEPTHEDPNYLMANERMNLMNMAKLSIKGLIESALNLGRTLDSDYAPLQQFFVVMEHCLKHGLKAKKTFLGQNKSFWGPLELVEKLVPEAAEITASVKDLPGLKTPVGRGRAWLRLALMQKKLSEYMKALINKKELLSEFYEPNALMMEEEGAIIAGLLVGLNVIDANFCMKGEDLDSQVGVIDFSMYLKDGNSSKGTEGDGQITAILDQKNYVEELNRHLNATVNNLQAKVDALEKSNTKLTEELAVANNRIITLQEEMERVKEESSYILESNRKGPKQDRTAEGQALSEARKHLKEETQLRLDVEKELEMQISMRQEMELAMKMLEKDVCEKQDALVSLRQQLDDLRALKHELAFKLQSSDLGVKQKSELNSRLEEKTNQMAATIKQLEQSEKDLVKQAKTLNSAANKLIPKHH
UniProt Q01196, whole entry, looked up: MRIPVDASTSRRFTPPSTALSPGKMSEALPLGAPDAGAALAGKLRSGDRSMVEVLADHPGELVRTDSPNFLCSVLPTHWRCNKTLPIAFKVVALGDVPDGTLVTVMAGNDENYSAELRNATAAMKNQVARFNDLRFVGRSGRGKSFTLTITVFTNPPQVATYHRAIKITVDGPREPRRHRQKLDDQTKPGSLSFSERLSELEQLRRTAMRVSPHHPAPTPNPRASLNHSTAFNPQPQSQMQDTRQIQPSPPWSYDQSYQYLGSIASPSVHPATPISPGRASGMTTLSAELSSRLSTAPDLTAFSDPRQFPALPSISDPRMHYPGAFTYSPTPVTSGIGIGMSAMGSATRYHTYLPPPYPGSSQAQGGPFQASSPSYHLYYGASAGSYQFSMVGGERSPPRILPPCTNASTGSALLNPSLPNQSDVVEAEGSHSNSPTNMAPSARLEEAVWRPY
UniProt Q8N122, whole entry, looked up: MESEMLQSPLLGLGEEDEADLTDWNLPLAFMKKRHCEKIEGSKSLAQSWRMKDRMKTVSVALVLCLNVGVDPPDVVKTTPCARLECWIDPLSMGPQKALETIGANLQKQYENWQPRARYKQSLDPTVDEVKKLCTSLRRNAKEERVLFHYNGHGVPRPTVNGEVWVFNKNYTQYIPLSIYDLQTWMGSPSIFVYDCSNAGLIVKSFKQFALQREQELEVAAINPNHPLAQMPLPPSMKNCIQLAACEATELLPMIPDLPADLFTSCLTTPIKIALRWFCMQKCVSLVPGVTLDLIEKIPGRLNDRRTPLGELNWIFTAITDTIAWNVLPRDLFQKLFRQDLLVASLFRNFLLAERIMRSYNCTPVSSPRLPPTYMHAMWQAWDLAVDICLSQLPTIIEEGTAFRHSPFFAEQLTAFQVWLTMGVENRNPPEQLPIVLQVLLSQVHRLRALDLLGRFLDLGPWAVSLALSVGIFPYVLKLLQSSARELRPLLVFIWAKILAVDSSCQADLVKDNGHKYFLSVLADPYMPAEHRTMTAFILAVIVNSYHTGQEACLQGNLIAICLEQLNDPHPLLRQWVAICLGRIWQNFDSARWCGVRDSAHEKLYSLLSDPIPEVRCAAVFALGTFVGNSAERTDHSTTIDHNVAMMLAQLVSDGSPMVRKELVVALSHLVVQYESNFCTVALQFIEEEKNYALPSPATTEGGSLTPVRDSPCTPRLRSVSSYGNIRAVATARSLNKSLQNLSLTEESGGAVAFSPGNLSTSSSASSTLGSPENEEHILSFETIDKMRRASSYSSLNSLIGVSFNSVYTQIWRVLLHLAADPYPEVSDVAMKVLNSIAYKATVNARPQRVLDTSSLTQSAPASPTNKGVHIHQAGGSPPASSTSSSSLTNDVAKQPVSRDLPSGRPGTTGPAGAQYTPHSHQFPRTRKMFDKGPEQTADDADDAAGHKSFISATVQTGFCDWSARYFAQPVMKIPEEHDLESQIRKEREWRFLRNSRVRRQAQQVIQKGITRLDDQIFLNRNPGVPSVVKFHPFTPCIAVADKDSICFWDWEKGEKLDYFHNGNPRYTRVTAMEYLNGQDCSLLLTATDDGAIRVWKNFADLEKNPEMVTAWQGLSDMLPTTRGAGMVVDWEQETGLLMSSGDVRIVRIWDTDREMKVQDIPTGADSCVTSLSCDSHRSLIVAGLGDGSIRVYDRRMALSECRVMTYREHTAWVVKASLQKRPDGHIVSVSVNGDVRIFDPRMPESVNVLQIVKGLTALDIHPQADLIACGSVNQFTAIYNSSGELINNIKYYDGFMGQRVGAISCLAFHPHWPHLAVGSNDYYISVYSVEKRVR
UniProt Q7L4I2: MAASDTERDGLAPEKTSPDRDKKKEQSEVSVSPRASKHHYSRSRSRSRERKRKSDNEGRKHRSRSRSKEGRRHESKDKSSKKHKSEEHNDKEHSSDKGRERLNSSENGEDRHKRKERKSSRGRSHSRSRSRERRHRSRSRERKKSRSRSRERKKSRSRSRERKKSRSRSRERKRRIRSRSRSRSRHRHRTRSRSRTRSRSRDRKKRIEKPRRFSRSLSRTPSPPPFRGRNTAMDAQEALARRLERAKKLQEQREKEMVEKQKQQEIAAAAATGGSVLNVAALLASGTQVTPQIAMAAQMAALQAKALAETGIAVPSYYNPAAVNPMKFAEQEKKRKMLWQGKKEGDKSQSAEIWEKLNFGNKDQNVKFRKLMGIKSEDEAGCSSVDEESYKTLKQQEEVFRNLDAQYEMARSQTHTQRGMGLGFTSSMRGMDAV
UniProt Q96P16: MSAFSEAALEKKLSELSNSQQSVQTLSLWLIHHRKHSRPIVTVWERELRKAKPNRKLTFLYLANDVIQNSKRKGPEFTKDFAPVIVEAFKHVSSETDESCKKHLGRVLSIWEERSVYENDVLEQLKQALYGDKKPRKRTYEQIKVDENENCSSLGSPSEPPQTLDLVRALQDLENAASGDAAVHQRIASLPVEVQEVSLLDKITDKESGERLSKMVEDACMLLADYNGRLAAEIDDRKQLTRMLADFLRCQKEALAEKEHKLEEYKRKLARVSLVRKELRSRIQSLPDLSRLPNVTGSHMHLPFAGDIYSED
UniProt Q92766: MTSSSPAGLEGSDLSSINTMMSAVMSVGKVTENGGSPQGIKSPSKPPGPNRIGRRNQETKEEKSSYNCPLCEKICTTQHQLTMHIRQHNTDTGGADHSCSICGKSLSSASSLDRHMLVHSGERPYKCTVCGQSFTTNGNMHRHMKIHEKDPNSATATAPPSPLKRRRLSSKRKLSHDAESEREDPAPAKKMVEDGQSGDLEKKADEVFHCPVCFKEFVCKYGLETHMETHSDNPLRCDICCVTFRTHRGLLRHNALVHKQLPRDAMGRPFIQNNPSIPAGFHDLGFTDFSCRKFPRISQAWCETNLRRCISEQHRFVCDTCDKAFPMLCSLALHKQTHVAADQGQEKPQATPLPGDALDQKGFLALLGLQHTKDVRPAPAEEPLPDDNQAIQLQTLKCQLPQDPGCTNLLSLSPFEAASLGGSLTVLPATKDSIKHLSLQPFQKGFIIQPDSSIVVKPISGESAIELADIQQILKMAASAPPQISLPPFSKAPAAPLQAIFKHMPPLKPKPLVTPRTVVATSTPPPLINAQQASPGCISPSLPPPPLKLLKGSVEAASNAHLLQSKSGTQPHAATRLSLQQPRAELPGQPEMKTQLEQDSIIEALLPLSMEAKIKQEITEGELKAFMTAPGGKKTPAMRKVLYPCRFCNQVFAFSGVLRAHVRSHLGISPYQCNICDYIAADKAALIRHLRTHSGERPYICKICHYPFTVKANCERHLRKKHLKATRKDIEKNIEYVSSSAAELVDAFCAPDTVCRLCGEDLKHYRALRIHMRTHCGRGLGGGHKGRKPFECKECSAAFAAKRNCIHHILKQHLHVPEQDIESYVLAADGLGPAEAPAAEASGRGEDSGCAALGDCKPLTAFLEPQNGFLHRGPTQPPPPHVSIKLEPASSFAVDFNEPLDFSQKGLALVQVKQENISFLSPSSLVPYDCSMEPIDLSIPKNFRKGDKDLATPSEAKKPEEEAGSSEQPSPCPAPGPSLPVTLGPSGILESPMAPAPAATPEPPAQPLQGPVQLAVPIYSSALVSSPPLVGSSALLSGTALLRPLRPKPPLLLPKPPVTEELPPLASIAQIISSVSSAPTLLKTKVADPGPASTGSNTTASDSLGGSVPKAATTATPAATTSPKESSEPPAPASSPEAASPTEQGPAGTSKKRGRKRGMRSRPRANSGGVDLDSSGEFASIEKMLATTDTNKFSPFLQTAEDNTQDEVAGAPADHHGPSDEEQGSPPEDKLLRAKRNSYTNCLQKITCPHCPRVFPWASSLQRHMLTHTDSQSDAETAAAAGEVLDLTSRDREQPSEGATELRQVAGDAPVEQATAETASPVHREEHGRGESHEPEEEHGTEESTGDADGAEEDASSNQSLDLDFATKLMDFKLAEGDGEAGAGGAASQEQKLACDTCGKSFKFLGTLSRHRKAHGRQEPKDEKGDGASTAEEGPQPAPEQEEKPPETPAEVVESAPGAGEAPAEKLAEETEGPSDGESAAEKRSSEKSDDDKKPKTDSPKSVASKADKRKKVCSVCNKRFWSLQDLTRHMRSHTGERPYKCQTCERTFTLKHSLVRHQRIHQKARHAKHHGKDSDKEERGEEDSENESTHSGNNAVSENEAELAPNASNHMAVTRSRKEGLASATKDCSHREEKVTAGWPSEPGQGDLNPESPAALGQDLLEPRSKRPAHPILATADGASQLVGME
UniProt O75818: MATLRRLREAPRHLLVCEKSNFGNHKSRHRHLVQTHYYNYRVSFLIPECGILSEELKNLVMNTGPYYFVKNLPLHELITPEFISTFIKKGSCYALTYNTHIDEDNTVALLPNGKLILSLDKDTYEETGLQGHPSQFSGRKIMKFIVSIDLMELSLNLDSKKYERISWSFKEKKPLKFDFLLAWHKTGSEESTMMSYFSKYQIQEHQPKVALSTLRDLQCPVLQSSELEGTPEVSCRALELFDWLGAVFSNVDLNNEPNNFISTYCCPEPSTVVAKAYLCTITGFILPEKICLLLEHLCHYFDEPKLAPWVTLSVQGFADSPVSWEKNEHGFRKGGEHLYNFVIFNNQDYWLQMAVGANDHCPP
UniProt Q9NQG5: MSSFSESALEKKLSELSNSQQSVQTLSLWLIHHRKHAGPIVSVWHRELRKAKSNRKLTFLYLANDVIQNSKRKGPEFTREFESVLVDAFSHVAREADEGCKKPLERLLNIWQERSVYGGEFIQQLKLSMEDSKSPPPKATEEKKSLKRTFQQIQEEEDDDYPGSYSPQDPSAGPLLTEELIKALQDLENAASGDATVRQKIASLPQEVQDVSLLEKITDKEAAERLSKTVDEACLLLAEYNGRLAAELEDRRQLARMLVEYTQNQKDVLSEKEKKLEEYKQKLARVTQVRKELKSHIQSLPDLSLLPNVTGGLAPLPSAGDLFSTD

[1] = compound: CCCS(=O)(=O)Nc1ccc(F)c(C(=O)c2c[nH]c3ncc(Cl)cc23)c1F
How it was run: as §1

barasertib = compound: CCN(CCCOc1ccc2c(Nc3cc(CC(=O)Nc4cccc(F)c4)[nH]n3)ncnc2c1)CCOP(=O)(O)O [barasertib]
How it was run: as §1

[2] = compound: CC[C@@H]1C(=O)N(C)c2cnc(Nc3ccc(C(=O)NC4CCN(C)CC4)cc3OC)nc2N1C1CCCC1
How it was run: as §1

volasertib = compound: CC[C@@H]1C(=O)N(C)c2cnc(Nc3ccc(C(=O)N[C@H]4CC[C@H](N5CCN(CC6CC6)CC5)CC4)cc3OC)nc2N1C(C)C [volasertib]
How it was run: as §1

[3] = compound: CCn1c(C(=O)N(C2CC2)C2CC2)cc2c3c(ncn3C)c(Nc3cc(C)n(C)n3)nc21
How it was run: as §1

[4] = compound: CCn1cc(-c2ccnc3[nH]c(-c4cccc(CN(C)C)c4)cc23)c(-c2ccc(NC(=O)N(C)C)cc2)n1
How it was run: as §1

[5] = compound: CN1CCC(CNc2ccc3ncc(-c4cccc(OC(F)(F)F)c4)n3n2)CC1
How it was run: as §1

saracatinib = compound: CN1CCN(CCOc2cc(OC3CCOCC3)c3c(Nc4c(Cl)ccc5c4OCO5)ncnc3c2)CC1 [saracatinib]
How it was run: as §1

sotrastaurin = compound: CN1CCN(c2nc(C3=C(c4c[nH]c5ccccc45)C(=O)NC3=O)c3ccccc3n2)CC1 [sotrastaurin]
How it was run: as §1

alvocidib = compound: CN1CC[C@H](c2c(O)cc(O)c3c(=O)cc(-c4ccccc4Cl)oc23)[C@H](O)C1 [alvocidib]
How it was run: as §1

Tubastatin A = compound: CN1CCc2c(c3ccccc3n2Cc2ccc(C(=O)NO)cc2)C1 [Tubastatin A]
How it was run: as §1

[6] = compound: CNC(=O)C1=CC=CC=C1NC2=NC(=NC=C2Cl)NC3=C(C=C(C=C3)N4CCOCC4)OC
How it was run: as §1

defactinib = compound: CNC(=O)c1ccc(Nc2ncc(C(F)(F)F)c(NCc3nccnc3N(C)S(C)(=O)=O)n2)cc1 [defactinib]
How it was run: as §1

[7] = compound: CNc1nc(-c2ccc3c(N)n[nH]c3c2)cc(N2C[C@@H](C(=O)NC3CCCCC3)CC[C@H]2C)n1
How it was run: as §1

encorafenib = compound: COC(=O)N[C@@H](C)CNc1nccc(-c2cn(C(C)C)nc2-c2cc(Cl)cc(NS(C)(=O)=O)c2F)n1 [encorafenib]
How it was run: as §1

[8] = compound: COC(=O)[C@H](CCSC)NC(=O)C1=C(C=C(C=C1)NC[C@H](CS)N)C2=CC=CC=C2
How it was run: as §1

alisertib = compound: COc1cc(Nc2ncc3c(n2)-c2ccc(Cl)cc2C(c2c(F)cccc2OC)=NC3)ccc1C(=O)O [alisertib]
How it was run: as §1

[9] = compound: COc1cc2nc(-c3cc(F)ccc3O)nc(N[C@@H]3CNC[C@H]3C(C)(C)O)c2cc1OC
How it was run: as §1

gefitinib = compound: COc1cc2ncnc(Nc3ccc(F)c(Cl)c3)c2cc1OCCCN1CCOCC1 [gefitinib]
How it was run: as §1

Measured: log2 fold change

RPS7 (UniProt P62081)
inactive: vemurafenib -0.031 | [1] -0.005 | barasertib -0.039 | [2] 0.026 | volasertib -0.028 | [3] -0.025 | [4] 0.295 | [5] -0.145 | saracatinib -0.003 | sotrastaurin -0.014 | alvocidib 0.099 | Tubastatin A 0.021 | [6] -0.014 | defactinib 0.023 | [7] 0 | encorafenib -0.028 | [8] 0.028 | alisertib -0.039 | [9] -0.011 | gefitinib -0.026

RRP12 (UniProt Q5JTH9)
inactive: vemurafenib -0.006 | [1] 0.033 | barasertib 0.013 | [2] -0.024 | volasertib -0.019 | [3] 0.013 | [4] 0.019 | [5] -0.056 | saracatinib 0 | sotrastaurin 0.049 | alvocidib -0.01 | Tubastatin A -0.01 | [6] -0.035 | defactinib 0.013 | [7] -0.015 | encorafenib 0.005 | [8] 0.08 | alisertib 0.023 | [9] 0.026 | gefitinib 0.07

RUFY3 isoform 3 (UniProt Q7L099)
inactive: vemurafenib -0.021 | [1] 0.014 | barasertib 0.005 | [2] 0.028 | volasertib -0.012 | [3] -0.01 | [4] -0.011 | [5] 0.014 | saracatinib -0.008 | sotrastaurin 0.005 | alvocidib -0.009 | Tubastatin A -0.01 | [6] 0.004 | defactinib -0.004 | [7] -0.013 | encorafenib 0.064 | [8] -0.069 | alisertib 0.012 | [9] 0.014 | gefitinib -0.024

RUNX1 isoform 8 (UniProt Q01196)
inactive: vemurafenib -0.099 | [1] 0.062 | barasertib 0.011 | [2] -0.055 | volasertib -0.054 | [3] 0.069 | [4] 0.011 | [5] -0.018 | saracatinib 0.022 | sotrastaurin -0.132 | alvocidib 0.037 | Tubastatin A -0.114 | [6] 0.004 | defactinib -0.029 | [7] -0.112 | encorafenib 0.077 | [8] -0.03 | alisertib 0.043 | [9] -0.023 | gefitinib 0.016

RPTOR (UniProt Q8N122)
inactive: vemurafenib -0.028 | [1] 0.022 | barasertib 0.052 | [2] -0.024 | volasertib -0.046 | [3] 0.038 | [4] 0.018 | [5] -0.039 | saracatinib 0 | sotrastaurin 0.046 | alvocidib 0.008 | Tubastatin A -0.11 | [6] 0.036 | defactinib 0 | [7] -0.048 | encorafenib -0.004 | [8] -0.007 | alisertib -0.012 | [9] -0.005 | gefitinib -0.007

RPL6 (UniProt Q02878)
inactive: vemurafenib -0.016 | [1] 0.003 | barasertib -0.01 | [2] -0.024 | volasertib -0.009 | [3] 0.007 | [4] -0.004 | [5] -0.023 | saracatinib -0.015 | sotrastaurin -0.003 | alvocidib 0.046 | Tubastatin A 0.005 | [6] 0.001 | defactinib -0.017 | [7] 0.027 | encorafenib -0.014 | [8] 0.008 | alisertib 0.016 | [9] -0.002 | gefitinib -0.06

RSRC2 (UniProt Q7L4I2)
inactive: vemurafenib -0.01 | [1] -0.02 | barasertib -0.035 | [2] 0.071 | volasertib 0.033 | [3] 0.01 | [4] -0.058 | [5] 0.024 | saracatinib -0.007 | sotrastaurin 0.2 | alvocidib -0.056 | Tubastatin A 0.015 | [6] -0.068 | defactinib 0.027 | [7] 0.064 | encorafenib 0.055 | [8] -0.021 | alisertib -0.017 | [9] 0.023 | gefitinib 0.048

RPS3 (UniProt P23396)
inactive: vemurafenib -0.04 | [1] 0.006 | barasertib -0.022 | [2] -0.054 | volasertib -0.007 | [3] 0.016 | [4] 0.016 | [5] -0.005 | saracatinib 0 | sotrastaurin -0.013 | alvocidib 0.016 | Tubastatin A -0.015 | [6] -0.034 | defactinib -0.004 | [7] -0.048 | encorafenib 0 | [8] 0.042 | alisertib 0.017 | [9] -0.001 | gefitinib -0.039

RPS8 (UniProt P62241)
inactive: vemurafenib -0.052 | [1] -0.005 | barasertib -0.06 | [2] -0.028 | volasertib -0.009 | [3] -0.005 | [4] 0.038 | [5] -0.014 | saracatinib 0.006 | sotrastaurin -0.004 | alvocidib 0.004 | Tubastatin A 0.035 | [6] -0.038 | defactinib 0.024 | [7] 0.006 | encorafenib -0.018 | [8] 0.061 | alisertib 0.019 | [9] 0.001 | gefitinib -0.07

RTF1 (UniProt Q92541)
inactive: vemurafenib -0.023 | [1] 0.005 | barasertib -0.019 | [2] -0.03 | volasertib 0.009 | [3] 0.008 | [4] 0 | [5] -0.017 | saracatinib -0.013 | sotrastaurin 0.031 | alvocidib 0.018 | Tubastatin A 0.014 | [6] 0 | defactinib -0.012 | [7] -0.052 | encorafenib 0.04 | [8] -0.023 | alisertib 0.009 | [9] -0.004 | gefitinib 0.042

RPS21 (UniProt P63220)
inactive: vemurafenib -0.02 | [1] -0.026 | barasertib 0.021 | [2] -0.039 | volasertib 0.025 | [3] 0.015 | [4] -0.036 | [5] 0.009 | saracatinib 0.005 | sotrastaurin -0.033 | alvocidib 0.002 | Tubastatin A 0.05 | [6] -0.01 | defactinib -0.007 | [7] 0.014 | encorafenib -0.018 | [8] -0.047 | alisertib 0.018 | [9] 0 | gefitinib 0.008

RPRD1A (UniProt Q96P16)
inactive: vemurafenib -0.061 | [1] 0.031 | barasertib 0.053 | [2] -0.026 | volasertib -0.007 | [3] 0.019 | [4] 0 | [5] -0.016 | saracatinib -0.009 | sotrastaurin -0.005 | alvocidib -0.013 | Tubastatin A -0.059 | [6] 0.008 | defactinib 0.059 | [7] 0.124 | encorafenib 0.029 | [8] 0.078 | alisertib 0.03 | [9] 0.04 | gefitinib -0.025

RREB1 isoform 2 (UniProt Q92766)
inactive: vemurafenib 0.044 | [1] -0.056 | barasertib 0.049 | [2] -0.046 | volasertib -0.092 | [3] -0.045 | [4] 0.018 | [5] 0.013 | saracatinib 0.041 | sotrastaurin 0.017 | alvocidib 0 | Tubastatin A -0.017 | [6] 0.067 | defactinib 0.152 | [7] 0.135 | encorafenib -0.056 | [8] 0.114 | alisertib 0.248 | [9] -0.077 | gefitinib -0.241

RPS27 (UniProt P42677)
inactive: vemurafenib -0.005 | [1] 0.005 | barasertib -0.016 | [2] -0.001 | volasertib -0.016 | [3] -0.1 | [4] -0.019 | [5] 0.045 | saracatinib 0.011 | sotrastaurin -0.073 | alvocidib 0.119 | Tubastatin A 0.063 | [6] 0.045 | defactinib 0.027 | [7] 0.042 | encorafenib -0.037 | [8] 0.058 | alisertib 0.087 | [9] 0.007 | gefitinib -0.097

2 consecutive entries from above:
RTF1 (UniProt Q92541)
inactive: vemurafenib -0.023 | [1] 0.005 | barasertib -0.019 | [2] -0.03 | volasertib 0.009 | [3] 0.008 | [4] 0 | [5] -0.017 | saracatinib -0.013 | sotrastaurin 0.031 | alvocidib 0.018 | Tubastatin A 0.014 | [6] 0 | defactinib -0.012 | [7] -0.052 | encorafenib 0.04 | [8] -0.023 | alisertib 0.009 | [9] -0.004 | gefitinib 0.042

RPS21 (UniProt P63220)
inactive: vemurafenib -0.02 | [1] -0.026 | barasertib 0.021 | [2] -0.039 | volasertib 0.025 | [3] 0.015 | [4] -0.036 | [5] 0.009 | saracatinib 0.005 | sotrastaurin -0.033 | alvocidib 0.002 | Tubastatin A 0.05 | [6] -0.01 | defactinib -0.007 | [7] 0.014 | encorafenib -0.018 | [8] -0.047 | alisertib 0.018 | [9] 0 | gefitinib 0.008

Remaining list, next part:

RPP40 (UniProt O75818)
inactive: vemurafenib -0.001 | [1] 0.011 | barasertib -0.019 | [2] -0.042 | volasertib 0.002 | [3] 0.043 | [4] 0.024 | [5] -0.012 | saracatinib -0.024 | sotrastaurin 0.006 | alvocidib 0.077 | Tubastatin A -0.026 | [6] 0.008 | defactinib 0.022 | [7] -0.086 | encorafenib 0.012 | [8] -0.107 | alisertib -0.01 | [9] -0.027 | gefitinib -0.007

RPRD1B (UniProt Q9NQG5)
inactive: vemurafenib 0.009 | [1] -0.013 | barasertib -0.039 | [2] -0.009 | volasertib -0.001 | [3] 0.044 | [4] -0.022 | [5] 0.017 | saracatinib 0.023 | sotrastaurin 0.011 | alvocidib -0.016 | Tubastatin A -0.026 | [6] -0.017 | defactinib 0.01 | [7] 0.023 | encorafenib 0.023 | [8] -0.007 | alisertib 0.037 | [9] -0.019 | gefitinib 0.019
